Results on one molecule are retold here after article PMC10323883.

The assay concerns the target T1, GFP-tagged MND1 fusion protein (human) (UniProt Q9BWT6).
T1 sequence: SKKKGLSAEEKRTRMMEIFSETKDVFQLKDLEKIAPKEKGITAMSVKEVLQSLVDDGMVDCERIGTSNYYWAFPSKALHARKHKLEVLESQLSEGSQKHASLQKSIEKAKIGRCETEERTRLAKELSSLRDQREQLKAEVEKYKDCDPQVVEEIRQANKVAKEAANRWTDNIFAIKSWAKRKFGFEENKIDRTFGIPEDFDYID
Description: co-IP; cells expressing GFP-MND1 or GFP alone; with and without DNA damage (interaction called DNA damage-independent); no Co-IP protocol in the methods.

These are yes or no findings as the source states them, for the method shown. Binding seen in cells or lysates may run through a third protein. Some results given as binding are weak or reduced against the parent protein; the word gives no strength. Sequences can lack the tags named with a protein.

B1: HOP2 (protein, UniProt Q9P2W1 1-217)
chain: MSKGRAEAAAGAAGILLRYLQEQNRPYSSQDVFGNLQREHGLGKAVVVKTLEQLAQQGKIKEKMYGKQKIYFADQDQFDMVSDADLQVLDGKIVALTAKVQSLQQSCRYMEAELKELSSALTTPEMQKEIQELKKECAGYRERLKNIKAATNHVTPEEKEQVYRERQKYCKEWRKRKRMATELSDAILEGYPKSKKQFFEEVGIETDEDYNVTLPDP
For B1, the binding entry is recorded as “binds”.
